Data as given in PubChem BioAssay AID1259424 (University of Nebraska Medical Center, 2018)
This is a random part of about 14,000 reagents tested. 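Higher correlation or smaller distance means closer resemblance to KSR1 loss; control wells, including KSR1 knockdowns, recur on many plates.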 Reagents against one gene are numbered here. Not all columns of the deposit are shown. No sequences are given here. Not stated in the record: the time to read-out.

Test: 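Rank knockdowns across the genome by resemblance to the KSR1 depletion profile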 (primary screen)
Cell system: human HCT116 colon cancer cells
Knock-down reagent: siRNA pool against human genes, 50 nM
Detection: 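Log2 levels of six mRNAs (branched-DNA multiplex), adjusted by two reference genes and the non-targeting median, then scored against the average KSR1 knockdown pattern as Pearson r and euclidean distance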
Scale: mean correlation with KSR1 profile: higher = expression change more like KSR1 knockdown; mean distance from KSR1 profile: higher = expression change less like KSR1 knockdown

no.	gene	pool no.	mean correlation with KSR1 profile	mean distance from KSR1 profile
1	SLC6A15	1	0.0552	1.39
2	EFCC1	1	0.463	1.44
3	STARD9	1	-0.000662	1.4
4	CYP4F8	1	-0.266	1.78
5	ADAMTS16	1	-0.48	2.41
6	DPP3	1	-0.248	3.51
7	PPP1CC	1	-0.0315	1.02
8	CHAC1	1	0.0379	0.934
9	DYRK3	1	-0.259	2.83
10	ZNF137P	1	-0.435	1.35
11	CKAP5	1	-0.707	1.93
12	PHF11	1	-0.367	2.43
13	CEP83	1	-0.724	2.62
14	MICAL2	1	-0.705	2.64
15	MICAL2	2	0.763	1.14
16	STX1A	1	-0.531	2.27
17	OR11A1	1	0.175	2.19
18	SMO	1	0.432	3.14
19	OTUD6B	1	-0.204	2.4
20	LBX1	1	-0.181	2.76
21	ATMIN	1	0.524	2.04
22	PPP2R5D	1	-0.648	2.04
23	SH2B3	1	-0.543	2.74
24	EIF1AX	1	-0.576	2.67
25	CARTPT	1	-0.758	2.56
26	PEX7	1	-0.216	1.57
27	TESK1	1	-0.286	1.96
28	HECW1	1	-0.153	1.77
29	MNX1	1	0.378	2.46
30	CTSV	1	0.212	1.62
31	UBQLN3	1	-0.209	2.69
32	LINC00208	1	0.706	1.32
33	NUP153	1	-0.513	1.83
34	DKKL1	1	-0.51	1.57

Part of the list above, limited to “mean correlation with KSR1 profile”.
TESK1 = -0.286
HECW1 = -0.153
